Results reported in the supplement of paper PMC10849652.
The other results are listed elsewhere or left out.

Amino acid sequences for entries named in this document (tags omitted). A change or cut given only in a name is not applied to a line headed by its entry.
UniProt Q9UBC2: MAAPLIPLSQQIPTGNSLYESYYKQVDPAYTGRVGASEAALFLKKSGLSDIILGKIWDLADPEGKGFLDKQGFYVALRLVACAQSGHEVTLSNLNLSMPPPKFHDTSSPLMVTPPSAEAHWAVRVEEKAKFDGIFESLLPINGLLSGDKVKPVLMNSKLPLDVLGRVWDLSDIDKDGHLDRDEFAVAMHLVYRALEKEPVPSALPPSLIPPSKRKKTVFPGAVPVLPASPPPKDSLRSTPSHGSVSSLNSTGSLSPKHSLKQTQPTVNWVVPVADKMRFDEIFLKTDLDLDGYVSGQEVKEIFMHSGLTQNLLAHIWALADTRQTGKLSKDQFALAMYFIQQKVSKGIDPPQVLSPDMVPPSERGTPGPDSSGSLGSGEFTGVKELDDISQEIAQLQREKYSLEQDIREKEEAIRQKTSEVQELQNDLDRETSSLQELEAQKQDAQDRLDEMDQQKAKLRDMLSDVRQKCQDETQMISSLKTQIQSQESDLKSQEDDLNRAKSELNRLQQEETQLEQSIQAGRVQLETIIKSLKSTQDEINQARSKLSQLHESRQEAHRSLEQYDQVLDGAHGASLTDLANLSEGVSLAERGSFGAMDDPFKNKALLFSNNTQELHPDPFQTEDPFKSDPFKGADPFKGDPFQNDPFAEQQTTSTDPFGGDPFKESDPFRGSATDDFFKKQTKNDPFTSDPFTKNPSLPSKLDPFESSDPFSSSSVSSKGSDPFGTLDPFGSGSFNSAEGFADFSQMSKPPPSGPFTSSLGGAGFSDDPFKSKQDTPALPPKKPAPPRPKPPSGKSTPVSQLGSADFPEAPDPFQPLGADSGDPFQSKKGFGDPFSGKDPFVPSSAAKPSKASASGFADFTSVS
UniProt P07099: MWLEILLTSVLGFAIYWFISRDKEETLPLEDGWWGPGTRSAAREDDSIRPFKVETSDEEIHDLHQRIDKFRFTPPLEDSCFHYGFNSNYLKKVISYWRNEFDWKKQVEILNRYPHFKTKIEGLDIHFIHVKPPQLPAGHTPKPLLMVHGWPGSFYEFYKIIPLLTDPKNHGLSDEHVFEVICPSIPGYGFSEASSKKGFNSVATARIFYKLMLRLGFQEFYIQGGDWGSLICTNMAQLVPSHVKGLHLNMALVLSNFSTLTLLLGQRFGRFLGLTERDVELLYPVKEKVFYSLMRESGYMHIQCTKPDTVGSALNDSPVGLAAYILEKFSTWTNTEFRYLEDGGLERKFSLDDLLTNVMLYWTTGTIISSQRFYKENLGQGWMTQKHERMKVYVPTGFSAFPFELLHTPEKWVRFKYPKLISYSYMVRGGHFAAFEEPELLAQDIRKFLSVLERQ
UniProt Q93063: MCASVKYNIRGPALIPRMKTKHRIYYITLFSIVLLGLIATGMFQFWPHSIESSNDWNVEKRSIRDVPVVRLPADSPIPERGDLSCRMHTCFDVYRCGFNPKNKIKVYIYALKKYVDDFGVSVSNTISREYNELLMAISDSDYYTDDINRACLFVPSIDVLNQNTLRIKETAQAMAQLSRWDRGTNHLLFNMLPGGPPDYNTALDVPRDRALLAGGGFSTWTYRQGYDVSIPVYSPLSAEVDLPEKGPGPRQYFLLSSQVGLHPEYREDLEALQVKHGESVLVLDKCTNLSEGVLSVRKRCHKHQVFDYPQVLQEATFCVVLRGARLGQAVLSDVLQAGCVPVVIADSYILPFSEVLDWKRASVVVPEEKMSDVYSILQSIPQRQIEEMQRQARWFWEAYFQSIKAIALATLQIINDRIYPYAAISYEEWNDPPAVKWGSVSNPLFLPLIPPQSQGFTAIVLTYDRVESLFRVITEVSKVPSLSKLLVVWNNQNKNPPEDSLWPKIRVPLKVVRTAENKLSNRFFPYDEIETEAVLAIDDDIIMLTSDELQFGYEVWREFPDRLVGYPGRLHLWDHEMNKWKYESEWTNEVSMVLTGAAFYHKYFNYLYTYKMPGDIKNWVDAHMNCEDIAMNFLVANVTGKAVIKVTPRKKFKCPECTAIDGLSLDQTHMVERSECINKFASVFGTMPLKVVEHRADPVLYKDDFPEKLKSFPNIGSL
UniProt Q6IPR1: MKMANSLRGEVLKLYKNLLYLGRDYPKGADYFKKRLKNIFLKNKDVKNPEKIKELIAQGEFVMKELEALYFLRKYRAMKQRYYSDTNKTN
UniProt P16930: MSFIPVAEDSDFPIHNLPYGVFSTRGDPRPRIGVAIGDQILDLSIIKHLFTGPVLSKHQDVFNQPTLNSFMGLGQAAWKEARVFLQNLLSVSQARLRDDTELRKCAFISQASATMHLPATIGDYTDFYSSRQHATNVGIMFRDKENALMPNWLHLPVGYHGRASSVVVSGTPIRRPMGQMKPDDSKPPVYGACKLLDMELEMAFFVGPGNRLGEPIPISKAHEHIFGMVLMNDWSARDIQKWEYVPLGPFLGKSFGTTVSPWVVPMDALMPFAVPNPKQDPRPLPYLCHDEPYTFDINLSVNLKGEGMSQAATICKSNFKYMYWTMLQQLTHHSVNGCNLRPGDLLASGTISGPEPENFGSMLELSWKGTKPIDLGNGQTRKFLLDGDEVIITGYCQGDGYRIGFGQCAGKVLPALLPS
UniProt Q0VG06: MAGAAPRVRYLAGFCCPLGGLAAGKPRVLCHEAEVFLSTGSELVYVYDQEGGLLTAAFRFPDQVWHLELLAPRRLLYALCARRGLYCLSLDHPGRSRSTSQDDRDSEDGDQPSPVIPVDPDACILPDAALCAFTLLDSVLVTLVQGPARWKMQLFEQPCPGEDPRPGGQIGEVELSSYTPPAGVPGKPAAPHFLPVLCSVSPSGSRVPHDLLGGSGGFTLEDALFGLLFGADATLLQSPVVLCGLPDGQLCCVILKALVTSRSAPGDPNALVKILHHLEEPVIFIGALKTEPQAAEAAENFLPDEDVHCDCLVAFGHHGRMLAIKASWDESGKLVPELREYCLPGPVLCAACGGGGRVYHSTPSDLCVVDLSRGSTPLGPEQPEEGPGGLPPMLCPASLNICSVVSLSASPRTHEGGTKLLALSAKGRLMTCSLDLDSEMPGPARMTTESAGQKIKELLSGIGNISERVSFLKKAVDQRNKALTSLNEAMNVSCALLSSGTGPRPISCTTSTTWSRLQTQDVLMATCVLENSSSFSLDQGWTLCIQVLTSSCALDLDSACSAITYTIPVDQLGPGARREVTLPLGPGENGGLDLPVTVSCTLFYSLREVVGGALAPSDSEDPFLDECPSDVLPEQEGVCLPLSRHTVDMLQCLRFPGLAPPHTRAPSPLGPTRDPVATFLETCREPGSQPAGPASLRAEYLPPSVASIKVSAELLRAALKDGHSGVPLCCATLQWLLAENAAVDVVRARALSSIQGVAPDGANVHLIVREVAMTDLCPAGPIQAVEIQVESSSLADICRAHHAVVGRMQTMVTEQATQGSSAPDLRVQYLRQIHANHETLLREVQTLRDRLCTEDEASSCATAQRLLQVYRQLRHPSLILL
UniProt Q6P587: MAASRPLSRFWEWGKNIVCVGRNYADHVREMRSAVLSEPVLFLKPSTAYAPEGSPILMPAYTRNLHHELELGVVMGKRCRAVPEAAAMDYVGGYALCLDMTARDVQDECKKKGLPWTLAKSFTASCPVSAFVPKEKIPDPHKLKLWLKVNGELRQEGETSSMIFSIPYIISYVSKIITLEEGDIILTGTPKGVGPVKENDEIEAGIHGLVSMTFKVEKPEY
UniProt Q8IYI6: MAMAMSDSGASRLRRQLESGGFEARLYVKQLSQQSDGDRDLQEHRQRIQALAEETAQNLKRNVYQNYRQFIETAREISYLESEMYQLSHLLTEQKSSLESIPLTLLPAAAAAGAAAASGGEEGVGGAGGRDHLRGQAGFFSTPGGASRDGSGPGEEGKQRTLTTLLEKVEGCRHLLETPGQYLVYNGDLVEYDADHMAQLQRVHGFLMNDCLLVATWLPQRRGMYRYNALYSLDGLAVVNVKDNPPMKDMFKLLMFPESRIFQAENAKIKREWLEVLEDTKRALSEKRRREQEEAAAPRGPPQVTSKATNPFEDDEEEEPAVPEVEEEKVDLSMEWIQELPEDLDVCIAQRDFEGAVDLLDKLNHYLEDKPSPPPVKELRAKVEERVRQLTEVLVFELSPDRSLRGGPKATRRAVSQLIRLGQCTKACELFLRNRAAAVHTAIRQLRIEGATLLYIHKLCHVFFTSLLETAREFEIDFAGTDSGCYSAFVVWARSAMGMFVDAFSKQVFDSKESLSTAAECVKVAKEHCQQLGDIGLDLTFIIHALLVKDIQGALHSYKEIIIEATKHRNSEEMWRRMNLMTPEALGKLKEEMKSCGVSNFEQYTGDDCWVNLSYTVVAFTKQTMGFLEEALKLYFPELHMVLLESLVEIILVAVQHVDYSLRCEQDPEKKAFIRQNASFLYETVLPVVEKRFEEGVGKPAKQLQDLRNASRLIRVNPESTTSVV
UniProt Q96HE7: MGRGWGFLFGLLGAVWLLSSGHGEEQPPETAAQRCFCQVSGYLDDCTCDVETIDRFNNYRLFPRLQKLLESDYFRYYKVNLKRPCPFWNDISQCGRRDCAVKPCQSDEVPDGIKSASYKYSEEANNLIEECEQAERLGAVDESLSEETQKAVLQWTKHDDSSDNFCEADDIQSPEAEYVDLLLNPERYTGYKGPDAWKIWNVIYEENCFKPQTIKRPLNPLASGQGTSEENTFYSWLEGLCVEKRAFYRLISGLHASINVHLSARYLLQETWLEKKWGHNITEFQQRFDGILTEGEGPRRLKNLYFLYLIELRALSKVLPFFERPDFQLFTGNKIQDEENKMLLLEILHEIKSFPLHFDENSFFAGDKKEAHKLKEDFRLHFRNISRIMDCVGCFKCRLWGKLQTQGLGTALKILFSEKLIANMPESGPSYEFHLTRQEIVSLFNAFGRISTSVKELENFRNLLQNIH
UniProt Q9NWS6: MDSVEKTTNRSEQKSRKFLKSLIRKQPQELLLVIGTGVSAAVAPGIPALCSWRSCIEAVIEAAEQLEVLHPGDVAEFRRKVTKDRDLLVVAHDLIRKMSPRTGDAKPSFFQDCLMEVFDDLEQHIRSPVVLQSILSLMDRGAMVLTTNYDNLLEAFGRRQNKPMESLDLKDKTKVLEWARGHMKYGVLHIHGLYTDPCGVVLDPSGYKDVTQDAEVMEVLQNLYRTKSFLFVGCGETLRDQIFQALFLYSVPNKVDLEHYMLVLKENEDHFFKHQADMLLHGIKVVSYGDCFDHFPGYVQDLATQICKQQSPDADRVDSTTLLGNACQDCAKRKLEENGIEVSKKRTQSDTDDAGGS
UniProt P15311, whole entry, looked up: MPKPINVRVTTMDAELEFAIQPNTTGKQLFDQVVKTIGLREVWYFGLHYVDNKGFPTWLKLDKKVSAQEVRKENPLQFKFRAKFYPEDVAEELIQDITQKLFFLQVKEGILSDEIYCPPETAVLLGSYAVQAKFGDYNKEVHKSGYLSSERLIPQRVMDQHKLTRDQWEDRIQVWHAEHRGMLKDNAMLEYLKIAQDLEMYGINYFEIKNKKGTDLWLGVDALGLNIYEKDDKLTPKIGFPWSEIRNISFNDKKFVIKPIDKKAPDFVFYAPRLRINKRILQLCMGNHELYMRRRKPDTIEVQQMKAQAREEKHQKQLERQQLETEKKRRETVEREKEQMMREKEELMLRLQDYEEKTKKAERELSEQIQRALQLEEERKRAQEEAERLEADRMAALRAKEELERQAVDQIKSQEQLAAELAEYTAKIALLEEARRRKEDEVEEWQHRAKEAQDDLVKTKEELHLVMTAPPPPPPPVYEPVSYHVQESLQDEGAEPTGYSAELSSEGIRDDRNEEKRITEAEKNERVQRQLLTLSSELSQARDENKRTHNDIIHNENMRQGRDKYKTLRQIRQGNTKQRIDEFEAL
UniProt Q8TAG9: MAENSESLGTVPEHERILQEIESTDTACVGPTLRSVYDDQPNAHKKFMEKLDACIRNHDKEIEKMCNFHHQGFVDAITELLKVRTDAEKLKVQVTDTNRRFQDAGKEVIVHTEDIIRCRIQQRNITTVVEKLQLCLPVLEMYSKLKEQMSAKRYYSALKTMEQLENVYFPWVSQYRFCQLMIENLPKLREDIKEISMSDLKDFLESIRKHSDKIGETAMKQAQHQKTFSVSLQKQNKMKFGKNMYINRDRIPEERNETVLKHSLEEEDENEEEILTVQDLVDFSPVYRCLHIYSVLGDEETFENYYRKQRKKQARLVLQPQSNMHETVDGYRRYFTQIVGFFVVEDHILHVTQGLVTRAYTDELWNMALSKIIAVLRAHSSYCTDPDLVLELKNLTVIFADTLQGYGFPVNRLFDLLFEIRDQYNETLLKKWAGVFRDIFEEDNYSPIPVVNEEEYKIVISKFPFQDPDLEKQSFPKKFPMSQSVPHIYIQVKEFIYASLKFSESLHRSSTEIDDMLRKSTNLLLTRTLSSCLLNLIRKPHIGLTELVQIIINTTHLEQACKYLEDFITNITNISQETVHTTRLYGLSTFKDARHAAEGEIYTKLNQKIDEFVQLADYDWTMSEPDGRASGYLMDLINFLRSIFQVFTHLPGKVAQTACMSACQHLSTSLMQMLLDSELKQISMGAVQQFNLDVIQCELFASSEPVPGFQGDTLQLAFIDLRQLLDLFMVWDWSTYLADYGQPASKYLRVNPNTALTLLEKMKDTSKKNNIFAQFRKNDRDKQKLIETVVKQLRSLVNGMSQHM

Columns and labels:
Test in all cases: log2 fold change, soluble protein after heating vs DMSO (PISA); higher = thermal stabilisation; K562 cells, 10 uM, 30 min; active = over 0.2 and 3.5 SD of the protein, either way, in both replicates (recomputed)
[1] = compound: C1=CC=C(C=C1)[C@H](COC2=CC3=C(C=C2)NC(=O)N3)NC(=O)C4=CC=CN(C4=O)CC5=CC(=C(C=C5)F)F
How it was run: (§1)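 Thermal stability values are relative to control samples and come from duplicates. They are expressed as log2 fold changes. For measurement, K562 cells (2×10^6 cells/mL) received 10 μM compound for 30 min, and aliquots were heated for 3 min over 48°C-58°C, pooled, and extracted at 4°C in PBS with 0.5% NP-40. Soluble protein, the supernatant after 21,000xg for 90 min, was quantified by TMTpro 16plex LC-MS/MS with equalised channel sums.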

[2] = compound: CC1=C(SC2=C1C(=N[C@H](C3=NN=C(N32)C)CC(=O)N)C4=CC=C(C=C4)Cl)C
How it was run: as §1

[3] = compound: CC1=C2C(=CC=C1)N=C(N(C2=O)C3=CC=CC=C3C)CN4C=NC5=C(N=CN=C54)N
How it was run: as §1

[4] = compound: Cc1sc2c(c1C)C(c1ccc(Cl)cc1)=N[C@@H](CC(=O)OC(C)(C)C)c1nnc(C)n1-2
How it was run: as §1

[5] = compound: c1ccc([C@@H]2C[C@H]2NC2CCNCC2)cc1
How it was run: as §1

Measured: log2 fold change

ERGIC1 (UniProt Q969X5)
inactive: [1] 0.039 | [2] 0.047 | [3] 0.006 | [4] -0.02 | [5] 0.023

ERO1B (UniProt Q86YB8)
inactive: [1] 0.035 | [2] -0.022 | [3] 0.064 | [5] -0.008

EPS15L1 isoform 2 (UniProt Q9UBC2)
inactive: [1] 0.018 | [2] -0.001 | [3] 0.041 | [4] 0.013 | [5] 0.013

EPHX1 (UniProt P07099)
inactive: [1] 0.035 | [2] -0.018 | [3] -0.034 | [4] -0.007 | [5] 0.035

ETFB (UniProt P38117)
inactive: [1] -0.019 | [2] 0.03 | [3] 0.026 | [4] 0.028 | [5] 0.007

EXOSC5 (UniProt Q9NQT4)
inactive: [1] -0.004 | [2] 0.005 | [3] -0.036 | [4] 0.018 | [5] -0.033

EXT2 isoform 3 (UniProt Q93063)
inactive: [1] 0.052 | [2] -0.012 | [3] 0.005 | [4] -0.016 | [5] 0.033

ESS2 (UniProt Q96DF8)
inactive: [1] 0.04 | [2] -0.06 | [3] -0.096 | [4] 0.018 | [5] 0.075

ERP29 (UniProt P30040)
inactive: [1] 0.033 | [2] 0.012 | [3] 0.013 | [4] -0.014 | [5] -0.013

ERC1 (UniProt Q8IUD2)
inactive: [1] 0.191 | [2] 0.199 | [3] 0.166 | [4] -0.01 | [5] -0.052

ETFRF1 (UniProt Q6IPR1)
inactive: [1] 0.059 | [2] 0.097 | [3] -0.006 | [4] 0.045 | [5] -0.014

FAH (UniProt P16930)
inactive: [1] 0.012 | [2] 0.014 | [3] 0.046 | [4] -0.021 | [5] -0.023

FAAP100 (UniProt Q0VG06)
inactive: [1] -0.243 | [2] 0.078 | [3] 0.017 | [4] -0.073 | [5] 0.067

EPCAM (UniProt P16422)
inactive: [1] -0.013 | [2] 0.067 | [3] -0.027 | [4] -0.007 | [5] 0.008

FAHD1 (UniProt Q6P587)
inactive: [1] 0.019 | [2] -0.004 | [3] 0.009 | [4] 0.002 | [5] 0.013

ESRRA (UniProt P11474)
inactive: [1] 0.02 | [2] 0.071 | [3] 0.123 | [4] 0.173 | [5] -0.095

EXOC8 (UniProt Q8IYI6)
inactive: [1] -0.004 | [2] 0.029 | [3] 0.03 | [4] 0.006 | [5] -0.051

ERO1A (UniProt Q96HE7)
inactive: [1] 0.025 | [2] -0.028 | [3] 0.003 | [4] -0.033 | [5] -0.004

ERVK3-1, A0A0U1RQV1
inactive: [1] 0.002 | [2] 0.028 | [3] -0.059 | [4] -0.053 | [5] 0.038

ERAL1 (UniProt O75616)
inactive: [1] -0.073 | [2] -0.145 | [3] -0.069 | [5] 0.065

Reprinted from the entries so far (6 entries):
FAHD1 (UniProt Q6P587)
inactive: [1] 0.019 | [2] -0.004 | [3] 0.009 | [4] 0.002 | [5] 0.013

ESRRA (UniProt P11474)
inactive: [1] 0.02 | [2] 0.071 | [3] 0.123 | [4] 0.173 | [5] -0.095

EXOC8 (UniProt Q8IYI6)
inactive: [1] -0.004 | [2] 0.029 | [3] 0.03 | [4] 0.006 | [5] -0.051

ERO1A (UniProt Q96HE7)
inactive: [1] 0.025 | [2] -0.028 | [3] 0.003 | [4] -0.033 | [5] -0.004

ERVK3-1, A0A0U1RQV1
inactive: [1] 0.002 | [2] 0.028 | [3] -0.059 | [4] -0.053 | [5] 0.038

ERAL1 (UniProt O75616)
inactive: [1] -0.073 | [2] -0.145 | [3] -0.069 | [5] 0.065

(list continues)

FAM118A (UniProt Q9NWS6)
inactive: [1] -0.079 | [2] 0.05 | [3] -0.102 | [4] -0.021 | [5] 0.003

FAHD2A (UniProt Q96GK7)
inactive: [1] 0.049 | [2] 0.061 | [3] 0.004 | [4] -0.029 | [5] -0.015

EXTL3 (UniProt O43909)
inactive: [1] 0.103 | [2] -0.043 | [3] 0.039 | [4] -0.012 | [5] -0.076

EZR (UniProt P15311)
inactive: [1] -0.023 | [2] 0.05 | [3] 0.017 | [4] -0.011 | [5] -0.025

EXOC6 (UniProt Q8TAG9)
inactive: [1] -0.088 | [2] -0.006 | [3] 0.072 | [4] 0.031 | [5] -0.069
